Where two headings read alike, the source gives them in different places. No constants are given. Whether binding was seen depends on the method and setting. In cells and extracts the contact can be indirect. Binding calls can cover weak binding; strength is not graded here.
Columns and labels:
Assay in all cases: co-IP
[1] = target: FLAG-EP400NL deletion mutant Δ1-50 (human) (UniProt Q6ZTU2)
[2] = target: FLAG-EP400NL deletion mutant Δ141-156 (human) (UniProt Q6ZTU2)
[3] = target: FLAG-EP400NL deletion mutant Δ246-260 (human) (UniProt Q6ZTU2)
[4] = target: FLAG-EP400NL deletion mutant Δ360-419 (human) (UniProt Q6ZTU2)
[5] = target: FLAG-EP400NL, full-length wild type (human) (UniProt Q6ZTU2)
[6] = target: TAP-tagged EP400NL (EP400 N-terminal-Like) (human) (UniProt Q6ZTU2)
[7] = target: FLAG-EP400NL, full-length wild type (human) (UniProt Q6ZTU2); remark: listed apart in the source
[8] = target: RuvBL1 (human (endogenous in HEK293T, Flp-In T-REx and HeLa cells)) (UniProt Q9Y265)
[9] = target: RuvBL2 (TIP48) (human (endogenous in Flp-In T-REx, HEK293T and HeLa cells)) (UniProt Q9Y230)
[10] = target: cMyc (human (endogenous in Flp-In T-REx cells)) (UniProt P01106)

Sequences of proteins named here, by UniProt entry; tags and fusion partners are left off. A change or cut given only in a name is not applied to a line headed by its entry.
UniProt Q6ZTU2: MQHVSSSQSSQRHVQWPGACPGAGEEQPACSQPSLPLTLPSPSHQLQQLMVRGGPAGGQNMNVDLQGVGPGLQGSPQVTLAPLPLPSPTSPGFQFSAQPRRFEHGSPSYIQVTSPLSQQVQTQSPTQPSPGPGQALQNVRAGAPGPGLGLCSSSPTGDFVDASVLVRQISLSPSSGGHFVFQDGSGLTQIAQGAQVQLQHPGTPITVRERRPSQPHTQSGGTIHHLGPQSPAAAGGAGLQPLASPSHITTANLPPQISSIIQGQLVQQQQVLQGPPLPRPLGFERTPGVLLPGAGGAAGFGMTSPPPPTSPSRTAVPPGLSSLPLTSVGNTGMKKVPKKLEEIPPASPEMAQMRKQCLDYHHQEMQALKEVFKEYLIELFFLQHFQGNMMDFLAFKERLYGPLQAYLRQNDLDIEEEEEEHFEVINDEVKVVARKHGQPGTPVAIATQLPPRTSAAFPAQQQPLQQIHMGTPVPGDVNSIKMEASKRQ
UniProt Q9Y265: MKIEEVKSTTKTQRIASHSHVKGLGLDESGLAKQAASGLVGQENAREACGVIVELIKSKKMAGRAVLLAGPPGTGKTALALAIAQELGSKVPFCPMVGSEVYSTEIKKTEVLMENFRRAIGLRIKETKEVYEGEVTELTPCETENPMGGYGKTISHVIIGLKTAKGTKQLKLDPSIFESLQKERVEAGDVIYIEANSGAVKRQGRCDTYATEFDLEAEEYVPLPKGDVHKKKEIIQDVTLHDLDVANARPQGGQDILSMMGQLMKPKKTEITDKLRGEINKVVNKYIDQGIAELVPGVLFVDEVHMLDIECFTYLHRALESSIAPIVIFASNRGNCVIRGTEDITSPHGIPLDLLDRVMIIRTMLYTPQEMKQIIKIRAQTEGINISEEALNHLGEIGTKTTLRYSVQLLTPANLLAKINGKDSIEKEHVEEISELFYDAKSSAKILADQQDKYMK
UniProt Q9Y230: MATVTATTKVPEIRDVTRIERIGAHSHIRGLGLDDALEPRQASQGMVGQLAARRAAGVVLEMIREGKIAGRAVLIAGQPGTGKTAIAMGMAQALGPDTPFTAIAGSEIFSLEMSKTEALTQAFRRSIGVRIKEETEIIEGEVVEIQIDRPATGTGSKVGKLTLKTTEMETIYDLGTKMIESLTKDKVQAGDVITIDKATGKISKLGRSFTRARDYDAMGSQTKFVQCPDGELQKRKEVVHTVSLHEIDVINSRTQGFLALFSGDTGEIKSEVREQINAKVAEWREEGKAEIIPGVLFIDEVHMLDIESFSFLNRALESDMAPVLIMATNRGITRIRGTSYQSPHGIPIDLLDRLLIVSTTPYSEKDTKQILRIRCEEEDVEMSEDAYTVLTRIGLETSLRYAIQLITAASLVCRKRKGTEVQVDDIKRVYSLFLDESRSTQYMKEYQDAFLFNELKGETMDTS
UniProt P01106: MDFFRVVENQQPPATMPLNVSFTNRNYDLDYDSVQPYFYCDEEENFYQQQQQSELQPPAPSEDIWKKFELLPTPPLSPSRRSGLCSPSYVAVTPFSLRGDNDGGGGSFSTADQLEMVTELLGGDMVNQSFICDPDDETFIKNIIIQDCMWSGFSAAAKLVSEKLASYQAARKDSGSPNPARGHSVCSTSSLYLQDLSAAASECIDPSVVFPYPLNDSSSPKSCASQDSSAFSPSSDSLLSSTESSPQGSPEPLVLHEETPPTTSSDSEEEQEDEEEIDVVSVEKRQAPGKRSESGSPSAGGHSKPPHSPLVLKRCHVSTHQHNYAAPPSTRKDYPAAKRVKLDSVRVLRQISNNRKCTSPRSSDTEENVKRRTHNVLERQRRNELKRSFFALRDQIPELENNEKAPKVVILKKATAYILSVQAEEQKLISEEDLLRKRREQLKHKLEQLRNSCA
UniProt Q9H0E9: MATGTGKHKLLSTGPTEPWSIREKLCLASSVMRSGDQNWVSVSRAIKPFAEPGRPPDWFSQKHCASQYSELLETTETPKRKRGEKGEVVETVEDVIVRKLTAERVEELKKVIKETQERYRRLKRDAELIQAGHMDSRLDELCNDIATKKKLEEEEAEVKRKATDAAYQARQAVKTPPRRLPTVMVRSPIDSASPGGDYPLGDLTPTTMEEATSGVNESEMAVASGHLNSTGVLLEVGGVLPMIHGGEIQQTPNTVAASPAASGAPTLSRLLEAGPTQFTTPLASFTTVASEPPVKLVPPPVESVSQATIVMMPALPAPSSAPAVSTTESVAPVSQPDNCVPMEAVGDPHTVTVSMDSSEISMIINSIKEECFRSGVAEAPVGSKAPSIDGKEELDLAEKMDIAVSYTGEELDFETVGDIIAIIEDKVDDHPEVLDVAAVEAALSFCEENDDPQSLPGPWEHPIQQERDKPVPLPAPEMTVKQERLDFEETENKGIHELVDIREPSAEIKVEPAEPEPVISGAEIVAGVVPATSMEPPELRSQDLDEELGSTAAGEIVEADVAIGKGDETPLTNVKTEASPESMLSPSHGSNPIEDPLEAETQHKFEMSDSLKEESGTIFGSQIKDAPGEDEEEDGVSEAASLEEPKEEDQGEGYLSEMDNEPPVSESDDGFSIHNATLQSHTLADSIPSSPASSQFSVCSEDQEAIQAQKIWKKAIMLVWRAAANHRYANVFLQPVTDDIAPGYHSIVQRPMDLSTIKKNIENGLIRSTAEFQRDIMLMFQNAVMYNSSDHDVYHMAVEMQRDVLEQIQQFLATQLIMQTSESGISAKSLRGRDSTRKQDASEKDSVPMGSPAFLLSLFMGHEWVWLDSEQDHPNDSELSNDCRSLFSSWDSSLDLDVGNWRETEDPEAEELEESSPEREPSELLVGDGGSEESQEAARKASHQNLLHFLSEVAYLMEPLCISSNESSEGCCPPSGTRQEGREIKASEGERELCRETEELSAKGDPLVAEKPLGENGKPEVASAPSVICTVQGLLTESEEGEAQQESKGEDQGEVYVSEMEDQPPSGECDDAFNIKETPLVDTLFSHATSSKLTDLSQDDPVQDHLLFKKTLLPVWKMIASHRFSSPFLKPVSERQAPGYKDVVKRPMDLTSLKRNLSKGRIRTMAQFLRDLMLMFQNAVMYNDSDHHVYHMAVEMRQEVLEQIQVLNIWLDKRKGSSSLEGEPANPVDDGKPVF
UniProt P51532: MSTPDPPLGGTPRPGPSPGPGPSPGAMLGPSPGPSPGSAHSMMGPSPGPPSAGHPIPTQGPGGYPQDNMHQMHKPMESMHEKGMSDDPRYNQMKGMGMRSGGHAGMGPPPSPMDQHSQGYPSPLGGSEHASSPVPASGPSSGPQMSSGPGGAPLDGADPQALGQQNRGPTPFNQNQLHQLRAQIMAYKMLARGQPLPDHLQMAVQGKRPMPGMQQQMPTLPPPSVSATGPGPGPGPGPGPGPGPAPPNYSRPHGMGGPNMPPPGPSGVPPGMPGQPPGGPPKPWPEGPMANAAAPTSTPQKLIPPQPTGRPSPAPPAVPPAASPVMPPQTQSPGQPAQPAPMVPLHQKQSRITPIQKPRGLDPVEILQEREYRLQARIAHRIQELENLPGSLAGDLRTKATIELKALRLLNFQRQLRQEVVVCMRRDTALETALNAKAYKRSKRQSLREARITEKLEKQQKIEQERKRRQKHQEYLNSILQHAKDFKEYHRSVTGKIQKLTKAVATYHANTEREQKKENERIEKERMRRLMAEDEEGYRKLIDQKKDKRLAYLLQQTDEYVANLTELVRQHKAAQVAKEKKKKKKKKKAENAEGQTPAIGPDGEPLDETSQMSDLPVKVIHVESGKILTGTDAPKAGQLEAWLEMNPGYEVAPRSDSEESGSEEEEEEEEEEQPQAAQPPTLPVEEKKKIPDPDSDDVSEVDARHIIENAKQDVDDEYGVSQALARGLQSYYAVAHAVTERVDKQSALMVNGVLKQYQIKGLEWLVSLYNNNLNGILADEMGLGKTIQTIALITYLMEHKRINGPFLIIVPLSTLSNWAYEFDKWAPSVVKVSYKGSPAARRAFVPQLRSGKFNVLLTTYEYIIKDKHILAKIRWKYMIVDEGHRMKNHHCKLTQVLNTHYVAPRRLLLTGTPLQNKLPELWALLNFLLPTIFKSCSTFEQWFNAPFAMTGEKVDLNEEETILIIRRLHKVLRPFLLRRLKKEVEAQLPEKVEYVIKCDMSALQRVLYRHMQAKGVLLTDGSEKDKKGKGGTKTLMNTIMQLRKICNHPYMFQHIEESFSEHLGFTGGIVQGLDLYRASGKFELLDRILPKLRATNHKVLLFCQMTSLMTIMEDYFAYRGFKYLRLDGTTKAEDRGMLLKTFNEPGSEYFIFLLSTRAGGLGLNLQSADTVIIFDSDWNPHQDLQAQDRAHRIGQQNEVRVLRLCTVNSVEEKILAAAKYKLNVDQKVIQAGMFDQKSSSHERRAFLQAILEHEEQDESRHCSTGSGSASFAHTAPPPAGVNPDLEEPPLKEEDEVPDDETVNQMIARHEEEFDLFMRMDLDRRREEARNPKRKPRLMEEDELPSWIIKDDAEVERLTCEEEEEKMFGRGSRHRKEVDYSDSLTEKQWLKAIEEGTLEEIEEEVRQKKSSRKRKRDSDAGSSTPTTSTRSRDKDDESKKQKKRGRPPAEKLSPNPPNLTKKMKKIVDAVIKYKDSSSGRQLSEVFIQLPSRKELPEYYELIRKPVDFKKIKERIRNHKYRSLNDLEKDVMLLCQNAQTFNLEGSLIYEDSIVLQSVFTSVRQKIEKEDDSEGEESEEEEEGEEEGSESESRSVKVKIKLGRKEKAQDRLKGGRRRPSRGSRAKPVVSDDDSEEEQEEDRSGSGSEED

Measured: binding

BRD8 (Bromodomain-containing protein 8) (from UniProt Q9H0E9 1-1235)
binds: [1] | [2] | [3] | [4] | [5]

BRG1, core ATPase subunit of the human SWI/SNF chromatin remodelling complexes (from UniProt P51532 1-1647)
not listed: [8] | [9] | [10]
binds: all other assays above

RuvBL1 (from UniProt Q9Y265 1-456)
binds: [5] | [6]

TAP-tagged EP400NL (EP400 N-terminal-Like) (from UniProt Q6ZTU2)
binds: [8] | [9] | [10]

Source: doi:10.1101/2021.05.30.446361
